Where a name gives a salt, the structure may show the parent alone. This is one part of the list. The calls rarely recur for the same compound in another form.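 Kinases were expressed as nanoluciferase fusions in K562 cells and luminescence was read every 4 h between 2 and 18 h as percent of control, DMSO set to 100% and a positive control to 0%. A time point counts as decreased when the signal drops significantly (2 sigma). The hit call is the authors' own, does not follow from the count of time points alone, and its rule is not shown.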
What follows are molecules tested against MAP2K2 (UniProt P36507) (assay: number of time points (of 5) at which kinase-Nluc abundance scored as decreased, DMSO-normalised (count); higher = more persistent destabilization). Settings: K562; 2-18 h.

SMILES | number of time points
COCCNc1nc2ccc(C#CC3(O)CCCCC3)cc2n1-c1ccnc(N)n1 (10 µM) | 0
CC(=O)NC1CC(n2cnc(NC(=O)Cc3ccc4ccccc4c3)c2)C1 (configuration not stated) (10 µM) | 0
COc1cc(Nc2ncc(F)c(Nc3ccc4c(n3)NC(=O)C(C)(C)O4)n2)cc(OC)c1OC (10 µM) | 0
C=C(CC[C@@H](C(=O)O)[C@H]1[C@H](O)C[C@@]2(C)C3=C(CC[C@]12C)[C@@]1(C)CC[C@H](OC(C)=O)C(C)(C)[C@@H]1CC3)C(C)C [Pachymic acid] (10 µM) | 0
O=C(NOCC(O)CO)c1cc(Br)c(F)c(F)c1Nc1ccc(I)cc1F (configuration not stated) (2.5 µM) | 0
Nc1nc2ccc(Cl)cc2c2nc(-c3ccco3)nn12 (10 µM) | 0
O=C(CSC1=NCCN1)NC1CCCCCC1 [ICCB-19 (hydrochloride)] (2.5 µM) | 0
O=Nc1c(-c2c(O)[nH]c3ccc(I)cc23)[nH]c2ccccc12 [5-Iodo-indirubin-3'-monoxime] (10 µM) | 0
Nc1nc(F)nc2c1ncn2[C@@H]1O[C@H](CO)[C@@H](O)[C@@H]1O [Fludarabine] (10 µM) | 0
Cc1cc(=O)oc2c(C=O)c(O)ccc12 (10 µM) | 0
C[C@@H]1CC[C@@H](Nc2nc(NC(C)(C)C)ncc2C(N)=O)C[C@H]1O (10 µM) | 0
NC(=O)c1nc(Nc2ccccc2)sc1NC(=O)C1CCCCC1 (10 µM) | 0
